PubChem BioAssay AID1224830 | NIAID, 2016

Screen: 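Regulators of TLR4 signalling towards TNF-alpha in macrophage-like cells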 (primary screen)
Cells: human THP-1 monocytic leukaemia cells, TNF dual-luciferase reporter clone, PMA-differentiated to macrophage-like cells
Knock-down reagent: siRNA pool against human genes, 50 nM
Timing: LPS for 4 h, given about 3 days after siRNA transfection
Treatment: bacterial LPS (TLR4 ligand), 10 ng/ml
Measured: 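Ratio of firefly to renilla light, scaled to the plate median and expressed as a robust z-score per replicate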
Direction: TNF reporter robust z-score: higher = stronger TNF reporter response to LPS
Hit rule: 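Each well counts as active if its z-score is over 2.8 or under -1.5; controls are left without a call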
The whole screen tested about 18,000 reagents; this is a random part of them. Of all reagents, about 2,900 (16%) got an active call. 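Calls are made per well; low scores hint the gene aids the LPS response, high scores that it dampens it.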 A number with no mark means an inactive call. Repeated entries: four replicate wells of each siRNA pool.

Which result is listed for ZNF17 (GeneID 7565) [SID315452200]?
TNF reporter robust z-score: 0.81

What did the screen give for ZNF17 (GeneID 7565) [SID315452200]?
TNF reporter robust z-score: 1.86

How did the screen score ZNF17 (GeneID 7565) [SID315452200]?
TNF reporter robust z-score: 0.59

For ZNF17 (GeneID 7565) [SID315452200], what was measured?
TNF reporter robust z-score: 1.52

For TRAF3 (GeneID 7187) [SID315451969], how do the results read?
TNF reporter robust z-score: 0.02

What is on record for TRAF3 (GeneID 7187) [SID315451969]?
TNF reporter robust z-score: -0.96

What is on record for TRAF3 (GeneID 7187) [SID315451969]?
TNF reporter robust z-score: -0.8

What is on record for TRAF3 (GeneID 7187) [SID315451969]?
TNF reporter robust z-score: 0.58

How did the screen score ADM2 (GeneID 79924) [SID315459566]?
TNF reporter robust z-score: 1.19

For ADM2 (GeneID 79924) [SID315459566], how do the results read?
TNF reporter robust z-score: -0.32

With ADM2 (GeneID 79924) [SID315459566], how do the results read?
TNF reporter robust z-score: 0.31

How did the screen score ADM2 (GeneID 79924) [SID315459566]?
TNF reporter robust z-score: 0.92

What is on record for FXR2 (GeneID 9513) [SID315453344]?
TNF reporter robust z-score: 1.3

For FXR2 (GeneID 9513) [SID315453344], how do the results read?
TNF reporter robust z-score: -0.13

With FXR2 (GeneID 9513) [SID315453344], what was measured?
TNF reporter robust z-score: 0.25

What is on record for FXR2 (GeneID 9513) [SID315453344]?
TNF reporter robust z-score: 2.05

What is on record for THAP4 (GeneID 51078) [SID315456449]?
TNF reporter robust z-score: 0.2

What is on record for THAP4 (GeneID 51078) [SID315456449]?
TNF reporter robust z-score: 1.14

Which result is listed for THAP4 (GeneID 51078) [SID315456449]?
TNF reporter robust z-score: 0.95

What did the screen give for THAP4 (GeneID 51078) [SID315456449]?
TNF reporter robust z-score: 0.02

For LRRFIP2 (GeneID 9209) [SID315453123], what does the deposit list?
TNF reporter robust z-score: 4.61 (active)

Which result is listed for LRRFIP2 (GeneID 9209) [SID315453123]?
TNF reporter robust z-score: 0.76

What did the screen give for LRRFIP2 (GeneID 9209) [SID315453123]?
TNF reporter robust z-score: 2.41

Which result is listed for LRRFIP2 (GeneID 9209) [SID315453123]?
TNF reporter robust z-score: 1.2

With SRSF9 (GeneID 8683) [SID315452744], what was measured?
TNF reporter robust z-score: 0.36

What is on record for SRSF9 (GeneID 8683) [SID315452744]?
TNF reporter robust z-score: -0.3

With SRSF9 (GeneID 8683) [SID315452744], what was measured?
TNF reporter robust z-score: -0.29

Which result is listed for SRSF9 (GeneID 8683) [SID315452744]?
TNF reporter robust z-score: -0.08

What did the screen give for NOMO3 (GeneID 408050) [SID315464851]?
TNF reporter robust z-score: -0.94

What is on record for NOMO3 (GeneID 408050) [SID315464851]?
TNF reporter robust z-score: -0.44

With NOMO3 (GeneID 408050) [SID315464851], what was measured?
TNF reporter robust z-score: -0.62

Which result is listed for NOMO3 (GeneID 408050) [SID315464851]?
TNF reporter robust z-score: -0.73

With RTCA (GeneID 8634) [SID315452702], how do the results read?
TNF reporter robust z-score: -1.33

How did the screen score RTCA (GeneID 8634) [SID315452702]?
TNF reporter robust z-score: -0.78

For RTCA (GeneID 8634) [SID315452702], what was measured?
TNF reporter robust z-score: -0.59

What did the screen give for RTCA (GeneID 8634) [SID315452702]?
TNF reporter robust z-score: -0.38

How did the screen score PHF11 (GeneID 51131) [SID315456498]?
TNF reporter robust z-score: -1.12

Which result is listed for PHF11 (GeneID 51131) [SID315456498]?
TNF reporter robust z-score: -0.35

What did the screen give for PHF11 (GeneID 51131) [SID315456498]?
TNF reporter robust z-score: -0.77

For PHF11 (GeneID 51131) [SID315456498], how do the results read?
TNF reporter robust z-score: 0.99

For TBC1D10A (GeneID 83874) [SID315460106], how do the results read?
TNF reporter robust z-score: 0.68

With TBC1D10A (GeneID 83874) [SID315460106], what was measured?
TNF reporter robust z-score: 0.38

For TBC1D10A (GeneID 83874) [SID315460106], what was measured?
TNF reporter robust z-score: -0.01

With TBC1D10A (GeneID 83874) [SID315460106], what does the deposit list?
TNF reporter robust z-score: 1.69

With ZNF474 (GeneID 133923) [SID315461954], what does the deposit list?
TNF reporter robust z-score: -0.13

For ZNF474 (GeneID 133923) [SID315461954], what does the deposit list?
TNF reporter robust z-score: 0.32

With ZNF474 (GeneID 133923) [SID315461954], what was measured?
TNF reporter robust z-score: -0.82

How did the screen score ZNF474 (GeneID 133923) [SID315461954]?
TNF reporter robust z-score: -0.58
